# Paper PMC7336374
# Sequences of proteins named here, by UniProt entry; tags and fusion partners are left off. A change or cut given only in a name is not applied to a line headed by its entry.
# UniProt Q5SMQ9: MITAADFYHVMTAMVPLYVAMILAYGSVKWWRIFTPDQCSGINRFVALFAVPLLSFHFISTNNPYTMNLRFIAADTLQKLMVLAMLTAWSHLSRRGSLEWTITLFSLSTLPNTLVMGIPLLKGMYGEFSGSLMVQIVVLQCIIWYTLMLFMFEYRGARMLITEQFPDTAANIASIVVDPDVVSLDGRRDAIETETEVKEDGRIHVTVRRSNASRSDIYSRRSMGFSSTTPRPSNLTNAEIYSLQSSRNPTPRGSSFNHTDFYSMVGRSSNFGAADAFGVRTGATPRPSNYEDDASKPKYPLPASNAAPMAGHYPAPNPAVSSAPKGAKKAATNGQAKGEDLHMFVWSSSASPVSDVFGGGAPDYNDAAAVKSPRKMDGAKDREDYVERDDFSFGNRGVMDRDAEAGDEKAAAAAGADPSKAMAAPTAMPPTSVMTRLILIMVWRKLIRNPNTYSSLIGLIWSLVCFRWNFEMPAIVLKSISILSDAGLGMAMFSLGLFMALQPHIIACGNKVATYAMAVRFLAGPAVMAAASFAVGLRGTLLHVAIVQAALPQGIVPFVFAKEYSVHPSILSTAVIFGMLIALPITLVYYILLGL
# UniProt Q67UL3: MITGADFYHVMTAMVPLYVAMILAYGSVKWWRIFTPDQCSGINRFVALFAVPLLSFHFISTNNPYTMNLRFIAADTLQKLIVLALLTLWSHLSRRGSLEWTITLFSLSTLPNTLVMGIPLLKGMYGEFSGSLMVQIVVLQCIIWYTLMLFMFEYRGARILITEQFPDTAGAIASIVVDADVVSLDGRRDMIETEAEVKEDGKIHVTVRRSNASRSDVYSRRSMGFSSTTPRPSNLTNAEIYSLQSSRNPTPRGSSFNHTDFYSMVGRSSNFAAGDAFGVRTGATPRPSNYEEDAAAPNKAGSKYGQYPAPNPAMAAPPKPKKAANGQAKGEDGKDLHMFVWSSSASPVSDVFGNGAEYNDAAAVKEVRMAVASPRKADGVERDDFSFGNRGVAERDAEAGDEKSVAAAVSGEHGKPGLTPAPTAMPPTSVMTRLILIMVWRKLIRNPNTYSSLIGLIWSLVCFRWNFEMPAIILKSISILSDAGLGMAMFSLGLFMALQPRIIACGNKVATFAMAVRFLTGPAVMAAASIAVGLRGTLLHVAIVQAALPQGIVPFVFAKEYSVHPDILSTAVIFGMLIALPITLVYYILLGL
# No constants are given. Whether binding was seen depends on the method and setting. Binding can be weak; no strength is given. Where a sequence is shown, tags or fusion partners need not be part of it. For part of these data: Binding seen in cells or lysates may run through a third protein.
# B1: HIS-tagged OsPINOID (OsPID) (protein, UniProt Q2QM77 1-484)
# chain: MVAAVRAPVKPEMVELSPAAMERYSSDADTTAPNSSLSSAASSTGSLARCSSLSRLSFDCSPSAAVAAAATSCSPPRASVLLRPHRSGDVAWAAIRAASTTSAAPLGPRDFKLVRRIGGGDIGTVYLCRLRSSPERESPCMYAMKVVDRRAVARKQKLGRAAAEKRILRQLDHPFLPTLFADFDATPHFSCAVMEFCPGGDLHSLRHRMPSRRFPLPSARFYAAEVLLAIEYLHMMGIVYRDLKPENVLIRADGHIMLTDFDLSLQSTTSPSLDGDTDTDDEASGGASCFPDHLLRFKRRRNAVAAPRPRFVAEPVDARSCSFVGTHEYVAPEVASGGAHGAAVDWWAYGVFLYELIYGRTPFAGATNEATLRNIVRRPLAFPSGSGSCGPADADARDLIARLLAKDPAARLGSRRGAADVKSHPFFKSLNLALLRSSRPPVVPGAGAGAAPLHRSQSCKAAPTTPPPPTTTKPANATARFDLF
# B2: 3xFLAG-tagged OsPINOID (OsPID) (protein, UniProt Q2QM77 1-484)
# chain: MVAAVRAPVKPEMVELSPAAMERYSSDADTTAPNSSLSSAASSTGSLARCSSLSRLSFDCSPSAAVAAAATSCSPPRASVLLRPHRSGDVAWAAIRAASTTSAAPLGPRDFKLVRRIGGGDIGTVYLCRLRSSPERESPCMYAMKVVDRRAVARKQKLGRAAAEKRILRQLDHPFLPTLFADFDATPHFSCAVMEFCPGGDLHSLRHRMPSRRFPLPSARFYAAEVLLAIEYLHMMGIVYRDLKPENVLIRADGHIMLTDFDLSLQSTTSPSLDGDTDTDDEASGGASCFPDHLLRFKRRRNAVAAPRPRFVAEPVDARSCSFVGTHEYVAPEVASGGAHGAAVDWWAYGVFLYELIYGRTPFAGATNEATLRNIVRRPLAFPSGSGSCGPADADARDLIARLLAKDPAARLGSRRGAADVKSHPFFKSLNLALLRSSRPPVVPGAGAGAAPLHRSQSCKAAPTTPPPPTTTKPANATARFDLF
# B3: OsPINOID (OsPID), yeast two-hybrid fusion (protein, UniProt Q2QM77 1-484)
# chain: MVAAVRAPVKPEMVELSPAAMERYSSDADTTAPNSSLSSAASSTGSLARCSSLSRLSFDCSPSAAVAAAATSCSPPRASVLLRPHRSGDVAWAAIRAASTTSAAPLGPRDFKLVRRIGGGDIGTVYLCRLRSSPERESPCMYAMKVVDRRAVARKQKLGRAAAEKRILRQLDHPFLPTLFADFDATPHFSCAVMEFCPGGDLHSLRHRMPSRRFPLPSARFYAAEVLLAIEYLHMMGIVYRDLKPENVLIRADGHIMLTDFDLSLQSTTSPSLDGDTDTDDEASGGASCFPDHLLRFKRRRNAVAAPRPRFVAEPVDARSCSFVGTHEYVAPEVASGGAHGAAVDWWAYGVFLYELIYGRTPFAGATNEATLRNIVRRPLAFPSGSGSCGPADADARDLIARLLAKDPAARLGSRRGAADVKSHPFFKSLNLALLRSSRPPVVPGAGAGAAPLHRSQSCKAAPTTPPPPTTTKPANATARFDLF
# B4: OsPINOID (OsPID), BiFC fusion in SCYNE(R) (protein, UniProt Q2QM77 1-484)
# chain: MVAAVRAPVKPEMVELSPAAMERYSSDADTTAPNSSLSSAASSTGSLARCSSLSRLSFDCSPSAAVAAAATSCSPPRASVLLRPHRSGDVAWAAIRAASTTSAAPLGPRDFKLVRRIGGGDIGTVYLCRLRSSPERESPCMYAMKVVDRRAVARKQKLGRAAAEKRILRQLDHPFLPTLFADFDATPHFSCAVMEFCPGGDLHSLRHRMPSRRFPLPSARFYAAEVLLAIEYLHMMGIVYRDLKPENVLIRADGHIMLTDFDLSLQSTTSPSLDGDTDTDDEASGGASCFPDHLLRFKRRRNAVAAPRPRFVAEPVDARSCSFVGTHEYVAPEVASGGAHGAAVDWWAYGVFLYELIYGRTPFAGATNEATLRNIVRRPLAFPSGSGSCGPADADARDLIARLLAKDPAARLGSRRGAADVKSHPFFKSLNLALLRSSRPPVVPGAGAGAAPLHRSQSCKAAPTTPPPPTTTKPANATARFDLF
# Assays:
# [1] = target: GST-tagged OsPIN1a (rice (Oryza sativa L.)) (UniProt Q5SMQ9); assay: pull-down; in vitro pull-down of HIS-tagged OsPID and GST-tagged partners expressed in E. coli BL21; which was held is not told
# [2] = target: GFP-tagged OsPIN1a (rice (Oryza sativa L.)) (UniProt Q67UL3); assay: co-IP; FLAG-tagged OsPID and GFP-tagged partners co-transformed into rice protoplasts; which was precipitated is not told
# [3] = target: LOC_Os02g27030, yeast two-hybrid fusion (rice (Oryza sativa L.)); assay: two-hybrid; OsPID in pGADT7, partners in pGBKT7, co-transformed into yeast strain AH109; growth on synthetic dropout medium without Trp, Leu, Ade and His at 28°C
# [4] = target: LOC_Os04g31910, yeast two-hybrid fusion (rice (Oryza sativa L.)); assay: as above
# [5] = target: LOC_Os06g12580, yeast two-hybrid fusion (rice (Oryza sativa L.)); assay: as above
# [6] = target: OsPIN1a, BiFC fusion in SCYCE (rice (Oryza sativa L.)) (UniProt Q67UL3); assay: split reporter; BiFC: SCYNE(R)::OsPID with SCYCE fusions, Agrobacterium GV3101 with the p19 strain infiltrated into 4- to 6-week-old tobacco leaves; SCFP signal by confocal microscopy
binder,measurement,setting,value
B1,binding,[1],binds
B2,binding,[2],binds
B3,binding,[3],binds
same,binding,[4],binds
same,binding,[5],binds
B4,binding,[6],binds
